In all, about 320,000 compounds went through this assay and about 22,000 (6.9%) were called active. This list was built around the results that the source calls inconclusive (neither active nor inactive); the mix of calls is not that of the screen. Calls come from the whole dose curve; as a rule, active = well fitted inhibition curve with a large enough effect; inconclusive = small, poorly fitted or top-dose-only effect, or another doubt; inactive = no such curve, though single readings can be large or run the other way. Where the call is inconclusive, the potency comes from a doubtful curve fit.
Test: Primary qHTS for delayed death inhibitors of the malarial parasite plastid, 96 hour incubation
Conditions: P. falciparum luciferase reporter growth; series mostly up to 28.7 µM
Procedure, shortened: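 Plates of compound plus infected erythrocytes (2% hematocrit, 0.05% parasitemia final) incubate 96 hours, 37 C, 5% CO2. Detection reagent added; reduced luminescence from the parasites' luciferase reporter flags inhibition.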
Potency is the fitted concentration of half-maximal effect.

Compound	Potency
Cc1ccc(C)c(S(=O)(=O)N2CCCOC2CNC(=O)C(=O)NC2CCCCC2)c1 (centres undefined)	inconclusive: 18.5 µM [inhibitor, single point]
Cc1ccccc1OCC(=O)Nc1ccc([N+](=O)[O-])cc1	inconclusive: 13.1 µM [inhibitor, single point]
COC(=O)C1=C(c2ccc(-c3ccccc3)c(F)c2)C[C@@H]2CC[C@H]1N2C(=O)NC1CCCCC1	inconclusive: 1.65 µM [inhibitor, partial curve]
O=C(Nc1ccc(Cl)c(S(=O)(=O)Nc2ccccc2Cl)c1)c1cccs1	inactive
C[C@@H](C(=O)Nc1nc2ccccc2s1)N1C(=O)C2CC=CCC2C1=O (some centres undefined)	inactive
CC(=O)Nc1ccc(OC(=O)c2cccnc2)cc1	active: 1.17 µM
CC(=O)Oc1cccc(C(=O)Nc2ccccc2NC(=O)c2cccc(OC(C)=O)c2)c1	inconclusive: 0.131 µM [inhibitor, full curve]
O=C1c2ccccc2CCC12N=NCC2c1ccc(Cl)cc1 (centres undefined)	inconclusive: 4.15 µM [inhibitor, partial curve]
CCN1/C(=C/c2ccc3cc(C)ccc3[n+]2C)Sc2ccc3sccc3c21	inactive
Cc1ccc(NC(=O)COC(=O)c2sccc2C)cc1S(=O)(=O)N1CCOCC1	inconclusive: 18.5 µM [inhibitor, single point]
COC(=O)c1c(C)[nH]c(C(=O)C(C)OC(=O)C2CC2C)c1C (centres undefined)	inconclusive: 10.4 µM [inhibitor, partial curve, poor fit]
COC(=O)N/N=C/c1ccc(Oc2ccccc2)cc1	inactive
COc1cc(-c2nc3n(n2)C(c2ccc(F)cc2)C2=C(CCCC2=O)N3)cc(OC)c1OC (centres undefined)	inactive
O=S(=O)(c1ccc(C2CCCCC2)cc1)N1CCCC1	inconclusive: 0.0026 µM [inhibitor, full curve, poor fit]
CNc1cc(OC)c(C(=O)N[C@@H]2CCN(Cc3ccccc3)[C@H]2C)cc1Cl	inconclusive: 9.53 µM [inhibitor, partial curve, poor fit]
COc1ccc(C(CNC(=O)c2ccc(Cl)c(NC(=O)c3cccs3)c2)N2CCCC2)cc1 (centres undefined)	active: 8.28 µM
CC/C(=N\NC(=S)NC(C)C)c1ccc(OC)c(OC)c1	inconclusive: 13.1 µM [inhibitor, single point]
CC(=O)Nc1ccc2c(c1)nc(C)n2Cc1ccccc1	active: 0.415 µM
COc1cc(/C=N\NC(=O)c2ccc(Cn3nc([N+](=O)[O-])c(Cl)c3C)o2)ccc1O	inconclusive: 10.4 µM [inhibitor, single point]
Cc1ccccc1NC(=S)N(Cc1cccnc1)Cc1ccccc1Cl	inconclusive: 13.1 µM [inhibitor, single point]
CCOc1ccc(C(=O)NCC(=O)NCC(c2ccco2)N2CCCCC2)cc1OCC (centres undefined)	inactive
CC1CC(C)CN(S(=O)(=O)c2ccc3c(c2)CCN3C(=O)C2CC2)C1 (centres undefined)	inconclusive: 10.4 µM [inhibitor, single point]

Compound	Potency
O=C(CCC(=O)Nc1nnc(C2CCCCC2)s1)Nc1ccc(F)cc1	inactive
Cc1cc(NC(=O)CN(C)S(=O)(=O)c2cnc[nH]2)ccc1Br	inconclusive: 18.5 µM [inhibitor, single point]
CC1(C)Cc2c(C#N)c(N3CCCC3)nc(-c3ccco3)c2CO1	inconclusive: 18.5 µM [inhibitor, single point]
Cc1ccc(C)c(S(=O)(=O)NCC(c2ccc3c(c2)OCO3)N2CCOCC2)c1 (centres undefined)	inconclusive: 10.4 µM [inhibitor, single point]
O=C(O)Cn1nc(-c2ccccc2)ccc1=O	active: 3.29 µM
CCCCN1C2=NCCCN2c2ccccc21	active: 10.4 µM
COc1cccc(NC(=O)c2ccco2)c1	inactive
COc1cccc(-c2nnc(NC(=O)c3ccc(S(=O)(=O)N4CC(C)OC(C)C4)cc3)o2)c1 (centres undefined)	inactive
COc1ccccc1CN1C(=NC(=O)CCC2CCCC2)SC2CS(=O)(=O)CC21 (centres undefined)	inconclusive: 18.5 µM [inhibitor, single point]
CCCCCCCN1CCN=C1Nc1ccccc1	inconclusive: 10.4 µM [inhibitor, single point]
COc1ccc(S(=O)(=O)N2CCCCCC2)cc1C(=O)Nc1cccc(C)n1	inconclusive: 23.3 µM [inhibitor, partial curve, poor fit]
O=C(CCS(=O)(=O)c1ccccc1)N1CCN(c2ccc(F)cc2)CC1	inconclusive: 18.5 µM [inhibitor, single point]
CC1CCCN(C(=O)COC(=O)C2CCN(S(=O)(=O)c3c(Cl)cccc3Cl)CC2)C1 (centres undefined)	inactive
COc1cc(N2CCCC2)c(OC)cc1/C=C1/NC(=S)NC1=O	inconclusive: 18.5 µM [inhibitor, single point]
Cc1ccc(C(=O)CSc2nc3ccccc3c(=O)[nH]2)cc1C	inconclusive: 18.5 µM [inhibitor, single point]
CC(C)OCCCNC(=O)CCC(=O)NNc1nc2ccccc2c2nc(-c3ccccc3)nn12	inconclusive: 8.28 µM [inhibitor, partial curve, poor fit]
COc1ccc(C(=O)NC(C)CCc2ccccc2)cc1 (centres undefined)	inactive
COc1ccc(OCCCC(=O)Nc2ccc(S(=O)(=O)N3CCOCC3)cc2)cc1	inconclusive: 9.28 µM [inhibitor, single point]
O=C(Nc1ccc(F)cc1)C1CC(=O)n2ncnc2N1 (centres undefined)	inconclusive: 1.85 µM [inhibitor, full curve]
CCOc1ccc(NS(=O)(=O)c2ccc3[nH]cc(C(=O)NC(C)CC)c(=O)c3c2)cc1 (centres undefined)	inconclusive: 3.29 µM [inhibitor, partial curve, poor fit]
COc1cccc(-c2nn(C)c3sc(C(=O)NCc4ccc(C)cc4)cc23)c1	inconclusive: 3.7 µM [inhibitor, partial curve, poor fit]
O=C1CC2(CCN(C(=O)c3cccc(Br)c3)CC2)Oc2ccccc21	inconclusive: 13.1 µM [inhibitor, partial curve]

A few values from above:
Value of `CCOc1ccc(NS(=O)(=O)c2ccc3[nH]cc(C(=O)NC(C)CC)c(=O)c3c2)cc1` (centres undefined) under Potency: inconclusive: 3.29 µM [inhibitor, partial curve, poor fit]
Value of `COc1cc(N2CCCC2)c(OC)cc1/C=C1/NC(=S)NC1=O` under Potency: inconclusive: 18.5 µM [inhibitor, single point]

Source: PubChem BioAssay AID504834 (National Center for Advancing Translational Sciences (NCATS), 2011)
